Screening data, single-dose tests

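Growth of Mycobacterium tuberculosis over 4 days (cholesterol / DPPC medium with tyloxapol); the read-out is not stated. Tested at 50 µM. Direction is inferred from retests: higher values go with more growth inhibition. Size under these conditions: about 69,000 compounds, about 370 of them at 50% or above in at least one test.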

Values are the deposited “Percent Effect”, in %. The record does not define 0% and 100%; most values in the screen are far below 50% and negative numbers occur (in some assays of this library far below -100). Compounds were drawn at random from those tested, without regard to their results. Two or more numbers in one place are separate tests of the same structure; such repeats can differ widely.

CCc1noc(CN(C)Cc2ccc(N3CCCCC3)cc2)n1 gave 1.617%. With CNC(=O)CN1CCOCC2(CCCN(CCc3ccccc3)C2)C1.O=C(O)C(F)(F)F.O=C(O)C(F)(F)F (stereo not shown) the screen gave -8.561% and 3.706%. With Cc1c(-c2cc(C(F)F)nc3sc(C(N)=O)c(N)c23)cnn1C the screen gave 7.035%. O=C(O)C(F)(F)F.[H][C@@]12CN(c3nnc(C)s3)C[C@H](C(=O)NCC3CC3)[C@]1([H])CCO2 gave 5.131%. With Cc1cnccc1N1CCN(C(=O)CCCN2CCCCC2)CC1 the screen gave 9.006% and -7.605%. Result for Cc1cnn(CC(C)NCCc2cccs2)c1 (stereo not shown) was -4.447%. Cn1c(CO)nnc1CC1CCN(Cc2ccc(C#N)cc2)CC1 read 2.279%.

NC(=O)CN(Cc1ccc(Br)cc1)C(=O)c1ccncc1 gave -1.483%. CN1CCN(c2cc(Sc3cccs3)nc(N)n2)CC1CCO (stereo not shown) gave -9.539%. For Cc1ncccc1C(=O)NC1(c2cccc(F)c2)CCOCC1 the result was 9.816%. Result for O=C(O)c1ccccc1CN1CCC(c2ccnc3ccnn23)CC1 was -6.168%. For O=C(Nc1c(N2CCCC2)cccc1N1CCCC1)c1cnccn1 the result was -1.866%. Result for O=C(NC1CCCC1)NC1CCc2[nH]c(=O)ccc2C1 (stereo not shown) was 15.67%. For [H][C@@]12CCN(Cc3ccc(F)cc3)C[C@]1([H])OCCN(c1cccnc1)C2=O the result was -11.42%.

NC(=O)C1CCN(C(=O)c2ccccc2OCc2ccccc2Cl)CC1 gave -8.857%. For O=C(O)C(F)(F)F.[H][C@]12CCC[C@@]1(COc1ccccn1)CN(C(=O)c1c(C)noc1C)C2 the result was -4.757%. Result for CN(CCC#N)C(=O)Cc1csc(-c2ncccn2)n1 was -27.1%. O=C(NCCOCCO)c1cnc(-c2ccccc2)nc1O gave -24.52%. O=C(O)C(F)(F)F.O=C(O)C(F)(F)F.[H][C@@]12CCN(C(=O)c3cnn(C)c3)[C@@]1([H])CCN2Cc1ccncc1 gave -15.44% and -20.93%. For Cc1ccc(-c2ccnc(NC(C)c3n[nH]c(C)n3)n2)c(C)n1 (stereo not shown) the result was 8.044% and 9.515%. For Cc1ccc(CNC2CCCc3c2cnn3C)s1.Cl (stereo not shown) the result was -14.06%.

Result for CCN1CCC2(COCc3cnc(NCC4CC4)nc32)C1.O=C(O)C(F)(F)F (stereo not shown) was -14.31%. Result for O=C(O)C(F)(F)F.O=C(O)C(F)(F)F.O=C(O)C(F)(F)F.[H][C@]12C[C@@H](Cn3cccn3)N(C)[C@@]1([H])CCN(Cc1cccs1)C2 was -22.78%. Result for O=C(Nc1nnn[nH]1)c1ccc(I)c(F)c1 was -19.97%. CSCC[C@H](NC(=O)N1CCC(Cc2ccccc2)CC1)C(=O)O gave -18.07%. O=c1[nH]c(N2CCCCC2)nc2c1CCN(Cc1cccnc1)C2 read -12.31%. Result for [H][C@@]12CS(=O)(=O)C[C@]1([H])N(Cc1cnn(-c3cccc(C)c3)c1)CCN2C was -9.244%. COc1cc(C(C)=O)ccc1SCC(=O)Nc1cc(C)n[nH]1 gave -14.93%.

For c1cnn(CC2CN(c3ncnc4c3CCC4)CCO2)c1 (stereo not shown) the result was -1.908%. For CCN1CCN(S(=O)(=O)c2cn(C(C)C)cn2)c2ccccc21 the result was -1.148%. With Cc1ccc(CC2COCCN(S(=O)(=O)c3ccccc3)C2)nc1 (stereo not shown) the screen gave 19.37%. Cl.O=S(=O)(N1CCCCC1)N1CCc2nc(C3CCNCC3)ncc2C1 gave 14.62%. Result for CCOCC1CN(Cc2cnn(C)c2)Cc2cnn(C)c21 (stereo not shown) was 4.352%. CCC(CN1CCCC1)n1cncc1-c1cnn(-c2ccccc2)c1.Cl (stereo not shown) read -9.754% and -8.782%. Result for CN(C)c1ncnc2c1CCN(c1cccc(F)c1)CC2 was 10.08%.

CC(C)[C@@H]1CN(Cc2cnc(C3CCCCC3)nc2)C[C@H]1C(=O)O read -29.31%. O=C(O)C(F)(F)F.c1csc(CN2CCc3ncnc(C4CCOC4)c3CC2)n1 (stereo not shown) read 7.45%. With CC(C)N1Cc2c(C(=O)N3CCN(C)CC3)nn(C)c2C1 the screen gave 7.539%. Cc1cc(C(=O)N2Cc3ccccc3OC3(CCOCC3)C2)nc(N)n1 read -15.99%. Result for Cc1cc(C)n(-c2cc(N3CCN(C(=O)C(C)(C)C)CC3)nc(C)n2)n1 was 17.67%. Result for CN(C)C(=O)N1CCN(C(=O)c2ccc(Cl)c(Cl)c2)C(C)(C)C1 was -7.239%. With COCCC(=O)N1CCC2(COCc3cnc(NCC4CC4)nc32)C1 (stereo not shown) the screen gave 3.549%.

Cc1cccn2cc(C[S+]([O-])Cc3noc(C(C)C)n3)nc12 (stereo not shown) read -0.5488%. CCN1CCOC(CNCc2ccc(OC)c(F)c2)C1 (stereo not shown) read 0.573%. For [H][C@]12CC[C@]([H])(CN(Cc3c(C)noc3C)C1)N(Cc1ccc(F)c(C)c1)C2 the result was 8.651%. CCOCCCNC(=O)c1cc(C)nc(N2CCCCC2)n1 read 13.09%. With COc1cccc(CNC2CCSC2)c1OC (stereo not shown) the screen gave 11.61%. Cc1noc(C)c1CN1CCC(c2nc3cc(Cl)ccc3o2)CC1 gave -6.348%. With CNCc1cc(C)n(-c2ccccc2OC)c1C the screen gave 19.5%.

Result for CS(=O)(=O)NC[C@H]1Cn2c(-c3ccc4c(c3)OCCO4)cnc2CO1 was 5%. With CNC(=O)c1nnc2ccc(N3CCOCC3)cc2n1 the screen gave 2.623%. Cn1cccc1C(=O)OCCNC(=O)c1ccccc1 gave 10.78%. With COC(=O)CNC(=O)c1ccc(OC2CCN(S(C)(=O)=O)CC2)c(Cl)c1 the screen gave -7.692%. O=C(c1c[nH]c2ncccc12)N1CCC(COc2ccccc2)CC1 read -21.65%. Nc1cc(-c2c[nH]nc2C2CCCN2CCCc2ccccc2)ccn1 (stereo not shown) gave 6.399% and 1.834%. Cc1nn(C)c(N(C)C)c1CNCc1ccccc1Cn1ccnc1 gave -1.992%.

O=C(NCCNC(=O)c1ccc(Br)cc1)c1ccc(O)cc1 gave -27.6%.

The last 4 entries again:

{"structure": "O=C(c1c[nH]c2ncccc12)N1CCC(COc2ccccc2)CC1", "percent effect": -21.65}
{"structure": "Nc1cc(-c2c[nH]nc2C2CCCN2CCCc2ccccc2)ccn1", "stereo": "stereo not shown", "percent effect": "6.399 and 1.834"}
{"structure": "Cc1nn(C)c(N(C)C)c1CNCc1ccccc1Cn1ccnc1", "percent effect": -1.992}
{"structure": "O=C(NCCNC(=O)c1ccc(Br)cc1)c1ccc(O)cc1", "percent effect": -27.6}

Measurements from “University of Dundee, Small-Polar-MMV Screening Library” (2021), ChEMBL document CHEMBL3988442.